Most values lie at the floor of the assay. Slopes are relative: functional sequences can read slightly below zero.
These substances were tested on Saccharomyces cerevisiae PS128 hsf1 delta, HSF1(1-493) fusion (assay: growth estimate (transactivation domain function in HSF1 fusion, heat-shock survival) (a.u. (slope of normalised read count over time)); higher = stronger growth at 37°C, i.e. more transactivation activity). Settings: library: random library.
Method: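 Random 60-nt DNA library encoding peptides of up to 20 aa, fused to the C-terminus of yeast HSF1 residues 1-493 (C-terminal TAD deleted) and expressed from the native HSF1 promoter on a CEN plasmid in hsf1-deleted S. cerevisiae PS128. Cells were selected at 37°C on -trp 5-FOA plates for 0, 2, 4, 6 and 8 days and amplicons were sequenced. Growth estimate is the slope of a robust linear fit of total-sum-normalised read counts (normalised to the first time point) over time, using at least 2 replicates. Sequences are classed functional (TAD activity) above a threshold of -0.13, set from stop-codon control sequences.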

Row | Substance | growth estimate
1 | GSRFVGVRPLFRQRGSGGYA | < -0.25
2 | GSRGCPY | -0.236
3 | GSRGDHQHCTLNGRLFNLCI | < -0.25
4 | GSRGSHNRGRV | < -0.25
5 | GSRPPALGRCGSGTIAFVIP | < -0.25
6 | GSRRTGTEAVG | < -0.25
7 | GSRSGVLEWDCRPGWGRHSL | < -0.25
8 | GSRSTESELESLEHVVSPRP | -0.243
9 | GSRSVWTDIVRAHLRLCSIS | -0.243
10 | GSRSWRYPFPFSGTRHEWYT | < -0.25
11 | GSSLFLVKSALLGRQVARLT | < -0.25
12 | GSSRPLTKFATRDPPTQLNR | < -0.25
13 | GSSSSR | < -0.25
14 | GSTESDRCKLQVSRATGVQH | < -0.25
15 | GSTH | < -0.25
16 | GSTSNR | < -0.25
17 | GSTSWSHTLRMGYKRATPGR | < -0.25
18 | GSTTDNTRRGCILLGWGDGV | < -0.25
19 | GSTTGGPARFTLCVYRKA | < -0.25
20 | GSVDGILVSIDRGQCVGYVD | < -0.25
21 | GSVDKVIRSLTQKLIRAIVS | < -0.25
22 | GSVDPQWSTSAGDLLAIIC | < -0.25
23 | GSVHESAVLNGGPIMDGRG | < -0.25
24 | GSVKENWDPRTLRSYVPMF | < -0.25

Row | Substance | growth estimate
25 | GSVMPLNPAFLAPPLQRQL | < -0.25
26 | GSVRWAGNKRYESKR | < -0.25
27 | GSWPTRKDGS | < -0.25
28 | GSYRVIGRDTSDADILYLDA | -0.225
29 | GTA | < -0.25
30 | GTAFERDLSKQLLDCQVGVL | < -0.25
31 | GTAG | < -0.25
32 | GTCDEANHGGRGRPSRGLAV | < -0.25
33 | GTDMILILGASLFGDALPAK | < -0.25
34 | GTFEH | < -0.25
35 | GTGAPNGDIL | < -0.25
36 | GTGD | < -0.25
37 | GTGGQGYDLVKSE | < -0.25
38 | GTGGRVDTRSPHTWACRYLV | < -0.25
39 | GTGHYIAMGGGQNPDGRVRR | < -0.25
40 | GTGKCSQQVLFLAARGNSGE | < -0.25
41 | GTGLVRTKWLSSGVPDQNQW | < -0.25
42 | GTGPAWRTY | < -0.25
43 | GTGRHGRGLEYGGSDIYYLV | < -0.25
44 | GTGRKLSDISPILTPRWGPV | < -0.25
45 | GTGTPKYRGDHIHITE | < -0.25
46 | GTHCTVCATLDSGGFITLLH | < -0.25
47 | GTHD | < -0.25
48 | GTHELR | < -0.25

Row | Substance | growth estimate
49 | GTHERGWSPQLAPSDSVSLS | < -0.25
50 | GTHYTNAARTGQRAVRSWGR | < -0.25
51 | GTIVGRQVGF | < -0.25
52 | GTLGGYKSRARRSQYGTTGI | < -0.25
53 | GTLIRSQSTPGCALD | < -0.25
54 | GTLTESDYATDMSDFRRHCH | < -0.25
55 | GTNDGP | -0.245
56 | GTPDMGRMCVWIHHLAECYR | < -0.25
57 | GTPERN | < -0.25
58 | GTPRGHDVRMS | < -0.25
59 | GTRCLSIIAFTDYGLLERHS | < -0.25
60 | GTRLRSVNSTSVLAE | < -0.25
61 | GTRMFTFPATTISCPWDRCT | < -0.25
62 | GTRPRGTWSAQSPTVTGCLG | < -0.25
63 | GTRTDPIRSAAHRLSF | < -0.25
64 | GTRWFFCETTMSTGLVSLLI | < -0.25
65 | GTSCYESSARCLSRDEIGIS | -0.246
66 | GTSDAINMIYSIIHDRRVTM | -0.243
67 | GTSFFGLRPSIVATLSSDVS | < -0.25
68 | GTSKTTCLIGRAPLWDAIIY | < -0.25
69 | GTSNSCADQGRSALAHWRRC | < -0.25
70 | GTSTGSWKGASGALSSLSLW | < -0.25
71 | GTSVIFVGRVPANPQQV | -0.225
72 | GTTGDGARSGA | < -0.25

Exported in markdown: part of the list above.

| Row | Substance | growth estimate |
| --- | --- | --- |
| 52 | GTLGGYKSRARRSQYGTTGI | < -0.25 |
| 54 | GTLTESDYATDMSDFRRHCH | < -0.25 |
| 64 | GTRWFFCETTMSTGLVSLLI | < -0.25 |
| 65 | GTSCYESSARCLSRDEIGIS | -0.246 |
| 71 | GTSVIFVGRVPANPQQV | -0.225 |

Remaining list, next part.

Row | Substance | growth estimate
73 | GTTNRRL | < -0.25
74 | GTTRGGRA | < -0.25
75 | GTVATMMCA | < -0.25
76 | GTVPVIAFRRSCGKDY | < -0.25
77 | GTVTAE | < -0.25
78 | GTWGPRCIRCI | < -0.25
79 | GTWPPGADVARAASIYSVAH | < -0.25
80 | GVACDRISYAPHWCGLRVRI | < -0.25
81 | GVALQAWSPNRVTAFIWTSR | < -0.25
82 | GVASRVWKICPGTRANVPRV | < -0.25
83 | GVCKRCEGAAGVHSCLYHRS | -0.243
84 | GVD | < -0.25
85 | GVDGLGFLFLCASRP | < -0.25
86 | GVDLRLGSTYILRALSASCK | < -0.25
87 | GVFSPK | < -0.25
88 | GVGAGFGY | < -0.25
89 | GVGCVYGGRLSYDLVERSGS | < -0.25
90 | GVGGYVLSNERGNLSTGPGV | < -0.25
91 | GVGKRVRPMCPRWPGSYSG | < -0.25
92 | GVGQRYVDLESRLRGSRVGS | < -0.25
93 | GVGSRAVKNWTLWHSLYRAR | < -0.25

From the supplement of paper PMC5949888
